Measurements: paper PMC4227867, “Analysis of Nidogen-1/Laminin γ1 Interaction by Cross-Linking, Mass Spectrometry, and Computational Modeling Reveals Multiple Binding Modes” (PLoS ONE, 2014)
Results are given in words; binding and its absence hold for the method and conditions named. Binding can be weak; no strength is given.

Legend:
full-length nidogen-1 [1] = biological target: T1, full-length nidogen-1 (murine, UniProt P10493 29-1245); assay: cross-linking; BS2G in 200-fold molar excess, 1 to 10 µM protein in 20 mM HEPES, 100 mM NaCl, pH 7.5, room temperature, 30 min; SDS-PAGE, digestion, nano-HPLC/nano-ESI-LTQ-Orbitrap-MS/MS; both purified
T1 construct: For photo-cross-linking the protein was made in Leu- and Met-depleted medium with photo-Met and photo-Leu; 13-25% of all leucines and methionines were partially replaced; also called entactin; source: HEK 293 EBNA cells, purified (Nickel-NTA Superflow); not shown: (His)6, N-terminal, kept
T1 sequence (looked up): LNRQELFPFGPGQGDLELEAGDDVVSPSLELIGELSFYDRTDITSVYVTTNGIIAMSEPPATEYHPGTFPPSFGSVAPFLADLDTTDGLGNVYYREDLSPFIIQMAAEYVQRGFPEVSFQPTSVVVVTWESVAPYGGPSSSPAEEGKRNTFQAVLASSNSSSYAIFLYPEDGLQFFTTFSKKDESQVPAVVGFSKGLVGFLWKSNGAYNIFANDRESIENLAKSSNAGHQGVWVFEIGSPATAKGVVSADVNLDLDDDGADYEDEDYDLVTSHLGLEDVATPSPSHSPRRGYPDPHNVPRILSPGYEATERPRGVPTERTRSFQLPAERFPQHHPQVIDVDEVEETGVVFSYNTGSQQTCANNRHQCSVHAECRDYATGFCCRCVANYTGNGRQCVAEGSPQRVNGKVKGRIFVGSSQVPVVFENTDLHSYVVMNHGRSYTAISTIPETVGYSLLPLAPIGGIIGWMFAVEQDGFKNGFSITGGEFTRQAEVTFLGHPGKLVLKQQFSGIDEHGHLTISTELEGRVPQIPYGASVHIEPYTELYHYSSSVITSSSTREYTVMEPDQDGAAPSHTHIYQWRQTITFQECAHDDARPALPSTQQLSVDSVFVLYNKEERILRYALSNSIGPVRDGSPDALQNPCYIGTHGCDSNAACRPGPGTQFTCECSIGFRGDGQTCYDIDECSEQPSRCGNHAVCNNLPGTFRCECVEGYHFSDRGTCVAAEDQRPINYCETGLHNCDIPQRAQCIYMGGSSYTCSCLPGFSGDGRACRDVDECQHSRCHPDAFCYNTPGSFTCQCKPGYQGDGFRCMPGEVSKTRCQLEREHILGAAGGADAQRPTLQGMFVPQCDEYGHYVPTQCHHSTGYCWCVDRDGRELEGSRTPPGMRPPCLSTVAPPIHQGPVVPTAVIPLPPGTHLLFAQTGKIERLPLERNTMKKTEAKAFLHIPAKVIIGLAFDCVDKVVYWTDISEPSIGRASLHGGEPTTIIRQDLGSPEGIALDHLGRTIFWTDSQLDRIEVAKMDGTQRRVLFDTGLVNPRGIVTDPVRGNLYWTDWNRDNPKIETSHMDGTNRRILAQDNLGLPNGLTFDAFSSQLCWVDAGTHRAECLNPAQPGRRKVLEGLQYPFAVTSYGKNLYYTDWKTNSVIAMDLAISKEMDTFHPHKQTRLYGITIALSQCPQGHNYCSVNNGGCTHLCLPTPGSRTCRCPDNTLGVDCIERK

full-length nidogen-1 [2] = biological target: T1, full-length nidogen-1; assay: SPR; nidogen-1 immobilised by amine coupling on a CM5 chip; laminin variants as mobile analytes; single-cycle kinetics, 25°C, 20 mM HEPES, 100 mM NaCl, 0.05% Tween 20, pH 7.5; 1:1 binding model; apparent Kd; both purified

binding (full-length nidogen-1 [1]): binds
binding (full-length nidogen-1 [2]): binds
Substance: laminin γ1 LEb2–4 N836D (murine) (domain or fragment)
